We go through 31 molecules from the supplement of paper PMC12889115.

This is one part of the list. These are raw signals, not scaled to a control.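 First-pass screen: polymyxin B was added at a level that permeabilizes the Salmonella outer membrane while sparing the inner membrane. DMSO wells, with and without polymyxin B, defined maximum growth. Because plates differed from one another, each plate's data were ranked separately and the compounds with the lowest OD600 were carried forward as hits.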

This experiment relates to Salmonella enterica serovar Typhimurium SL1344. Description: bacterial growth OD600 after 18 h with compound and polymyxin B; higher = more bacterial growth (less inhibition). Particulars: 50 µM, Mueller-Hinton broth.

As to `COC(=O)c1cccc(C(=O)N2CCc3c(cnc(C)c3CNC(=O)c3ccccc3SC)C2)c1`, the “bacterial growth OD600” value (polymyxin B 0.75 µg/mL) turned out to be 0.781.
As for `Cc1nc(N2CCC(C(=O)NCc3ccccc3Cl)CC2)nc2cc(S(C)(=O)=O)ccc12`, where the note is “polymyxin B 0.75 µg/mL”, the “bacterial growth OD600” value worked out at 0.783.
Regarding `COc1ccc(F)c(CC2(CCC(=O)N(C)CCC3CCCCO3)CCC(=O)N2)c1` (stereo unspecified), the “bacterial growth OD600” value (polymyxin B 0.75 µg/mL) came out at 0.845.
Turning to `O=C(CCN1CCCCO1)N1CCCC(CCc2ccccc2F)C1` (stereo unspecified), where the note is “polymyxin B 0.75 µg/mL”, the “bacterial growth OD600” value stood at 0.836.
`C=CCS(=O)(=O)N1CCCC(Cc2cccc(OC)c2)(C(=O)OCC)C1` (stereo unspecified): for the setting “polymyxin B 1 µg/mL”, the “bacterial growth OD600” value was found to be 0.907.
Same read-out and setting: for `Cc1noc(C)c1CCC(=O)NC1CC(=O)N(CC2CCCCC2)C1` (stereo unspecified) the value was 1.09; for `COc1ccc(OC2CCN(C(C)=O)CC2)c(C(=O)NCCc2nc(C)c(C)s2)c1`, 0.932.
In the case of `CCC(COC)Nc1ccc(-c2nc(Cc3ccccc3)no2)cn1` (stereo unspecified), the “bacterial growth OD600” value (polymyxin B 0.75 µg/mL) amounted to 0.016.
For `COC(=O)c1c(S(=O)(=O)NCc2ccccc2)sc2c1CCN(C(=O)CCc1ccccc1)C2`, the “bacterial growth OD600” value (polymyxin B 0.75 µg/mL) turned out to be 0.763.
`CN(CC1CCCN(CCc2ccc(F)cc2)C1)C(=O)c1cc2ccccc2cn1` (stereo unspecified): under “polymyxin B 1 µg/mL”, the “bacterial growth OD600” value came out at 0.843.
Turning to `Cc1c(C(C)NCc2ccc(Cl)c(F)c2)cnn1-c1ccccc1` (stereo unspecified), the “bacterial growth OD600” value (polymyxin B 0.75 µg/mL) was found to be 0.818.
On the same count and under the same terms, with `CO[C@H]1[C@H](NC(=O)c2ccncc2)c2ccccc2C12CCN(C(=O)CCC(C)C)CC2` the figure was 0.863; with `CN(CCc1cnn(C)c1)C(=O)CC1(c2cccc(F)c2)CC(=O)N(Cc2cccnc2)C1=O` (stereo unspecified), 0.848; with `Cn1nnnc1SCCNC(=O)c1ccc2oc(Cc3ccccc3)nc2c1`, 0.802.
`O=C(c1ccccc1OC1CCN(Cc2ccc(OCCO)cc2)CC1)N1CCCCC1`: for the setting “polymyxin B 0.75 µg/mL”, the “bacterial growth OD600” value was determined as 0.82.
Turning to `O=C(CCCc1ccccc1)NC1CCCN(CCc2ccccc2)C1` (stereo unspecified), where the note is “polymyxin B 1 µg/mL”, the “bacterial growth OD600” value worked out at 0.572.
Same read-out and setting: for `Cc1ccc2oc(C(=O)N3CCCC(C(=O)c4cccs4)C3)c(C)c2c1` (stereo unspecified) the value was 0.035.
For the molecule `C=CCO[C@H]1[C@H](NC(=O)CSC)c2ccccc2C12CCN(Cc1ccc(Cl)cc1)CC2`, under “polymyxin B 0.75 µg/mL”, the “bacterial growth OD600” value was 0.949.
In the case of `Cc1ccccc1CC(C1CCN(C(=O)/C=C/c2ccccc2)CC1)N(C)C(=O)Cn1cccn1` (stereo unspecified), the “bacterial growth OD600” value (polymyxin B 0.75 µg/mL) worked out at 0.778.
On to `COc1cccc(OCc2nc(C(=O)NC3CCC3)co2)c1`, for which the “bacterial growth OD600” value (polymyxin B 1 µg/mL) came to 0.938.
For the molecule `CC(C)N(C)C(=O)C1CCCN(C2CCN(C(=O)C3CC3)CC2)C1` (stereo unspecified), the “bacterial growth OD600” value (polymyxin B 0.75 µg/mL) stood at 0.85.
Still for that read-out and setting: with `O=C1CCCCN1CCC(=O)N1CCCC(CCc2ccc(F)cc2F)C1` (stereo unspecified) the figure was 0.91; with `COCC(=O)Nc1cc(C(=O)NC(C)c2ccc(F)cc2)c2c(c1)ncn2CCc1ccccc1` (stereo unspecified), 0.69.
As to `Cc1ccoc1C(=O)N1CCC(CCC(=O)Nc2ccc(F)c(Cl)c2)CC1`, the “bacterial growth OD600” value (polymyxin B 1 µg/mL) came to 0.888.
As to `COc1ccc(C2(CC(=O)N3CCC(Oc4ccc(F)cc4)CC3)CC(=O)N(C3CC3)C2=O)cc1` (stereo unspecified), the “bacterial growth OD600” value (polymyxin B 0.75 µg/mL) worked out at 0.884.
The same measure, in the same setting: with `COCCCN1C(=O)CC(CC(=O)N(C)Cc2ccco2)(c2ccccc2Cl)C1=O` (stereo unspecified) the figure was 0.705.
For `CC(C)CC(=O)NC1CCCc2nc(-c3ccccc3)ncc21` (stereo unspecified), the “bacterial growth OD600” value (polymyxin B 1 µg/mL) turned out to be 0.87.
The same measure, in the same setting: for `COc1cc(CN2CCN(Cc3c(OC)ccc4ccccc34)CC2CCO)cc(OC)c1` (stereo unspecified) the value was 0.798.
Same read-out and setting: for `COc1ccc(Cc2noc(-c3ccc(NCCc4cnccn4)nc3)n2)cc1` the value was 0.85.
As for `CCC(NC(=O)CCc1nnc(-c2ccc3c(c2)OCO3)o1)c1ccc(F)cc1` (stereo unspecified), the “bacterial growth OD600” value (polymyxin B 0.75 µg/mL) turned out to be 0.813.
On the same count and under the same terms, with `CCOC(=O)C1(Cc2ccccc2)CCN(Cc2cc(OC)c3c(c2)OCO3)CC1` the figure was 0.876.
